Assay results from patent publication US20170044100A1, “INHIBITORS OF DRUG-RESISTANT MYCOBACTERIUM TUBERCULOSIS” (THE JOHNS HOPKINS UNIVERSITY, priority 2014, published 2017).
At least one compound was matched to its structure with a doubt left. Some entries share one result that the patent states for a list of compounds.

System: M. tuberculosis IAR2 (mmpL3 S288T mutant)
Format: cell-based, Mycobacterium tuberculosis

SMILES | Fold change in MIC for IAR2 | MIC for IAR2 [µg/mL] | MIC upshift for IAR2 versus H37Rv [fold]
NC[C@H]1O[C@H](O[C@H]2[C@H](O)[C@@H](O[C@H]3O[C@H](CO)[C@@H](O)[C@H](N)[C@H]3O)[C@H](N)C[C@@H]2N)[C@H](O)[C@@H](O)[C@@H]1O [Kanamycin] | 0 | 2 | 
C[C@H]1COc2c(N3CCN(C)CC3)c(F)cc3c(=O)c(C(=O)O)cn1c23 [Levofloxacin] | 0 | 0.25 | 
Cc1cc(C)c2cc(C(=O)NC3CCCCCC3)[nH]c2c1 [Compound 11, N-Cycloheptyl-4,6-dimethyl-1H-indole-2-carboxamide] |  |  | 32 to 64
Cc1cc(C)c2cc(C(=O)NC3CCCCCCC3)[nH]c2c1 [Compound 12, N-Cyclooctyl-4,6-dimethyl-1H-indole-2-carboxamide] |  |  | 32 to 64
